Data source: PubChem BioAssay AID493246 (Drosophila RNAi Screening Center, 2011)
In all, the deposit lists about 21,000 reagents; this is a random part of those that have a named target and a result. In the full data, 429 (2%) got an active call. 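Values are raw and not normalised between plates; calls rest on per-plate z-scores that were not deposited.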 Not stated in the record: the amount of reagent, the time to read-out.

- Aim: 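Genome-wide search for dsRNAs that reduce cell number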 (primary screen)
- Cell system: Drosophila Kc and S2R+ cells
- Reagent: long dsRNA against Drosophila genes
- Measurement: 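Cell number per well after knock-down, printed as raw plate values; calls were based on per-plate z-scores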
- Scale: Kc cell number and S2R+ cell number: higher = more cells remaining
- Active means: 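Active when the per-plate z-score of cell number is 3 or more in the direction of fewer cells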

How did the screen score Arpc2 (Actin-related protein 2/3 complex, subunit 2) [DRSC02113]?
Kc cell number, rep 1: 1.36e6; Kc cell number, rep 2: 1.46e6; S2R+ cell number, rep 1: 1.36e6; S2R+ cell number, rep 2: 1.40e6; outcome: inactive

Which result is listed for Prp19 (Pre-RNA processing factor 19) [DRSC07434]?
Kc cell number, rep 1: 1.53e6; Kc cell number, rep 2: 1.56e6; S2R+ cell number, rep 1: 1.10e6; S2R+ cell number, rep 2: 1.20e6; outcome: inactive

With alpha-PheRS (Phenylalanyl-tRNA synthetase, alpha-subunit) [DRSC18224], what does the deposit list?
Kc cell number, rep 1: 5.60e5; S2R+ cell number, rep 1: 8.57e5; outcome: inactive

With CG6149 [DRSC10593], what was measured?
Kc cell number, rep 1: 1.32e6; Kc cell number, rep 2: 1.42e6; S2R+ cell number, rep 1: 1.29e6; S2R+ cell number, rep 2: 1.32e6; outcome: inactive

With caly (calypso) [DRSC07182], how do the results read?
Kc cell number, rep 1: 1.45e6; Kc cell number, rep 2: 1.50e6; S2R+ cell number, rep 1: 1.18e6; S2R+ cell number, rep 2: 1.21e6; outcome: inactive

With CG6497 [DRSC10654], what was measured?
Kc cell number, rep 1: 1.46e6; Kc cell number, rep 2: 1.71e6; S2R+ cell number, rep 1: 1.36e6; S2R+ cell number, rep 2: 1.61e6; outcome: inactive

How did the screen score Amy-p (Amylase proximal) [DRSC06786]?
Kc cell number, rep 1: 1.50e6; Kc cell number, rep 2: 1.57e6; S2R+ cell number, rep 1: 1.12e6; S2R+ cell number, rep 2: 1.19e6; outcome: inactive

What did the screen give for Bet1 (Blocked early in transport 1) [DRSC10088]?
Kc cell number, rep 1: 1.82e6; Kc cell number, rep 2: 1.91e6; S2R+ cell number, rep 1: 1.11e6; S2R+ cell number, rep 2: 1.20e6; outcome: inactive

Which result is listed for GEFmeso (Guanine nucleotide exchange factor in mesoderm) [DRSC06748]?
Kc cell number, rep 1: 1.40e6; Kc cell number, rep 2: 1.45e6; S2R+ cell number, rep 1: 1.28e6; S2R+ cell number, rep 2: 1.34e6; outcome: inactive

For GEFmeso (Guanine nucleotide exchange factor in mesoderm) [DRSC06940], how do the results read?
Kc cell number, rep 1: 1.55e6; Kc cell number, rep 2: 1.57e6; S2R+ cell number, rep 1: 1.14e6; S2R+ cell number, rep 2: 1.27e6; outcome: inactive

2 entries from above, ordered by “Kc cell number, rep 2”, high to low.
caly (calypso) [DRSC07182] — Kc cell number, rep 1 = 1.45e6; Kc cell number, rep 2 = 1.50e6; S2R+ cell number, rep 1 = 1.18e6; S2R+ cell number, rep 2 = 1.21e6; outcome = inactive
CG6149 [DRSC10593] — Kc cell number, rep 1 = 1.32e6; Kc cell number, rep 2 = 1.42e6; S2R+ cell number, rep 1 = 1.29e6; S2R+ cell number, rep 2 = 1.32e6; outcome = inactive

Additional records follow:
For Agps (Alkylglycerone phosphate synthase) [DRSC05984], what does the deposit list?
Kc cell number, rep 1: 1.48e6; Kc cell number, rep 2: 1.50e6; S2R+ cell number, rep 1: 1.18e6; S2R+ cell number, rep 2: 1.33e6; outcome: inactive

What is on record for CG6462 [DRSC10641]?
Kc cell number, rep 1: 1.54e6; Kc cell number, rep 2: 1.47e6; S2R+ cell number, rep 1: 1.08e6; S2R+ cell number, rep 2: 1.19e6; outcome: inactive

What did the screen give for CG15812 [DRSC08479]?
Kc cell number, rep 1: 1.43e6; Kc cell number, rep 2: 1.43e6; S2R+ cell number, rep 1: 1.00e6; S2R+ cell number, rep 2: 1.11e6; outcome: inactive

Which result is listed for Jheh3 (Juvenile hormone epoxide hydrolase 3) [DRSC06533]?
Kc cell number, rep 1: 1.34e6; Kc cell number, rep 2: 1.38e6; S2R+ cell number, rep 1: 1.14e6; S2R+ cell number, rep 2: 1.13e6; outcome: inactive

With chinmo (Chronologically inappropriate morphogenesis) [DRSC00292], what was measured?
Kc cell number, rep 1: 1.55e6; Kc cell number, rep 2: 1.47e6; S2R+ cell number, rep 1: 9.16e5; S2R+ cell number, rep 2: 1.06e6; outcome: inactive

With chinmo (Chronologically inappropriate morphogenesis) [DRSC00485], how do the results read?
Kc cell number, rep 1: 1.60e6; Kc cell number, rep 2: 1.68e6; S2R+ cell number, rep 1: 1.07e6; S2R+ cell number, rep 2: 1.19e6; outcome: inactive

With chinmo (Chronologically inappropriate morphogenesis) [DRSC00509], what was measured?
Kc cell number, rep 1: 1.44e6; Kc cell number, rep 2: 1.58e6; S2R+ cell number, rep 1: 8.36e5; S2R+ cell number, rep 2: 9.89e5; outcome: inactive

With CG17707 [DRSC20650], what does the deposit list?
Kc cell number, rep 1: 1.38e6; Kc cell number, rep 2: 1.32e6; S2R+ cell number, rep 1: 1.02e6; S2R+ cell number, rep 2: 1.05e6; outcome: inactive

For CG8534 [DRSC16439], what was measured?
Kc cell number, rep 1: 1.63e6; Kc cell number, rep 2: 1.89e6; S2R+ cell number, rep 1: 1.32e6; S2R+ cell number, rep 2: 1.41e6; outcome: inactive

What is on record for Gcn5 (Gcn5 acetyltransferase) [DRSC11248]?
Kc cell number, rep 1: 1.05e6; Kc cell number, rep 2: 1.15e6; S2R+ cell number, rep 1: 1.14e6; S2R+ cell number, rep 2: 1.01e6; outcome: inactive

With Dnali1 (Dynein axonemal light intermediate chain 1) [DRSC16158], how do the results read?
Kc cell number, rep 1: 1.60e6; Kc cell number, rep 2: 1.65e6; S2R+ cell number, rep 1: 1.34e6; S2R+ cell number, rep 2: 1.34e6; outcome: inactive
